# Reference: patent publication US20240408093A1, “HETEROBIFUNCTIONAL COMPOUNDS AND THEIR USE IN TREATING DISEASE” (HALDA THERAPEUTICS OPCO, INC., priority 2022, published 2024)
# By UniProt entry, the sequences of proteins in these tests, tags left out. Residues count along the entry.
# UniProt P01116, 1-188 isoform 2 G12C: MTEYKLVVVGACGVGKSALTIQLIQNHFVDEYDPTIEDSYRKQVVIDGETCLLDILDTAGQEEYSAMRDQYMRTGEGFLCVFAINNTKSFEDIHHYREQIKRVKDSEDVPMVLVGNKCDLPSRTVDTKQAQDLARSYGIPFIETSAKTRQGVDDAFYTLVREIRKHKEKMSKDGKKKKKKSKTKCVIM
# UniProt P01116, 2-169 isoform 2 G12C limits assumed: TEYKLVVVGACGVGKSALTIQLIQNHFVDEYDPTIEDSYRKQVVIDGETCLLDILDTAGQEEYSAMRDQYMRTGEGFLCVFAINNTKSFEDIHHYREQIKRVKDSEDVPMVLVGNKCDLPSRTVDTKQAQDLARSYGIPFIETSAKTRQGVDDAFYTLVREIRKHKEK
# The match of structure and compound is tentative.
# Legend:
# KRAS G12C [1] = target: T1, KRAS G12C (Homo sapiens, UniProt P01116, G12C); test: KRAS G12C cellular target engagement assay (SW1573 cells); details: read-out: TE50, 17 hours
# Method: SW1573 cells (ATCC CRL-2170) were cultured in RPMI 1640 (Gibco A1049101), supplemented with 10% Heat-inactivated FBS (Gibco Cat. #A38400-01) and 1% Penicillin/Streptomycin (Gibco Cat. #15140-122) in an incubator set at 37° C. and 5% CO2. Cells were seeded at 100,000 cells/ml in 1 ml of complete media in a 24-well, tissue culture-treated plate (Falcon 353226) and incubated overnight. Cells were treated with increasing concentrations of compound and let incubate at 37C and 5% CO2 for 17 hours, after which media was aspirated and cells were lysed in 75 uL RIPA Lysis and Extraction Buffer (Thermo 89901) supplemented with 5 mM MgCl2, Protease and Phosphatase inhibitor cocktail (Thermo 1861281), and Universal Nuclease (Thermo 88700). Plates with RIPA were shaken at 4° C. at 600 rpm for 15 min. After shaking samples, they were collected and spun down at 21,000 g for 15 min at 4° C. Following centrifugation, ˜10 ug of lysate was added to Laemmli Sample Buffer (Bio-Rad 1610747) plus 10% beta-mercaptoethanol, boiled for 15 minutes at 65° C. and loaded onto 12% Mini-PROTEAN TGX™ Precast Protein Gels (Bio-Rad). Protein was transferred to a nitrocellulose membrane (Thermo LC2000) using the iBlot 2 Dry Blotting System (Thermo). After transfer, membranes were washed in 1× TBST (Bioland Scientific LLC TBST0103) 3× for 5 min. […]
# HeLa cells (ATCC CCL-2) = test: Cellular growth inhibition assay, HeLa cells (Example 16); details: read-out: HeLa (GI50), 72 hours, CellTiter-Glo 2.0
# Method: (§1) Exemplary compounds were tested for ability to inhibit the proliferation of HEK293 cells (ATCC CRL-1573) and HeLa cells (ATCC CCL-2).
# (§2) HEK293 and HeLa cells were cultured in DMEM (Gibco 11995), supplemented with 10% Heat-inactivated FBS (Gibco A38400-01) and 1% Penicillin/Streptomycin (Gibco 15140-122) at 37° C. with 5% CO2 in a humidified tissue culture incubator. Cells were seeded at 500 cells/well in 384-well, Poly-D-lysine-treated blackplates (Perkin Elmer 6007710) in 25 μL media lacking selection for 18-24 hours. Plates were spun at 300 g for 30 seconds and stored in the incubator overnight. After 24 hours, a 25 μL aliquot of compound-containing medium was added in each well, at a final top concentration of 10 μM test compound, with 3-fold dilutions, using DMSO alone as a negative control. Plates were then spun at 300×g for 3 minutes again and cultured at 37° C. with 5% CO2. After 72 hours, cell viability was quantified with CellTiter-Glo 2.0 (Promega). After equilibrating cell plates at room temperature for 30 minutes, 25 μL CellTiter-Glo 2.0 reagent was dispensed into each well. Plates were mixed on a shaker for 2 minutes at 500 rpm, followed by a 10-minute incubation at room temperature. Luminescence readings were measured with an EnVision Plate Reader (Perkin Elmer). Data was normalized to DMSO treated cell wells. A four-parameter non-linear regression curve fit was applied to dose-response data in Prism to determine the half maximal growth inhibitory concentration (GI50) of each compound.
# KRAS G12C [2] = target: T1, KRAS G12C; test: KRAS G12C nucleotide exchange assay (SOS1-mediated, HTRF); details: 1 hr pre-incubation
# Method: KRAS target engagement (IC50 determination) was performed using a KRAS G12C nucleotide exchange assay. Specifically, compounds were tested against KRAS G12C in 10-point concentration IC50 mode with 3-fold serial dilution at a starting concentration of 10 μM. ARS1620 was used as a control.
# Briefly, GST-tagged KRAS G12C (amino acids 2-169) was mixed with anti-GST Tb antibody (1.5× solution) and 10 μL was delivered to reaction wells. Compounds were delivered using an acoustic dispenser (Echo, Labcyte) and pre-incubated with protein for 1 hr at RT. KRAS/anti-GST Tb Ab/compound mixture was incubated for 1 hour at room temperature. A 3× solution of SOS1 (amino acids 564-1049) and GTP-DY-647P1 (GTP*) was prepared in reaction buffer. A 5 μL aliquot of SOS1/GTP* solution was added to reaction wells to initiate the exchange reaction. No-SOS1 reaction or max compound concentration was used as blank. The final concentrations of KRAS G12C, SOS1, and GTP* were 30 nM, 20 nM, and 0.15 μM, respectively. SOS1 mediated exchange of GDP to GTP-DY-647P was measured using HTRF (Ex/Em=(320-75/665-7.5; 615-8.5)) using an Envision Plate Reader (Perkin Elmer). IC50 determination was performed using a Sigmoidal dose response (variable slope) equation.
# [3] = test system: HEK293 cells (ATCC CRL-1573); test: Cellular growth inhibition assay, HEK293 cells (Example 16); details: read-out: HEK293 (GI50), 72 hours, CellTiter-Glo 2.0
# Method: as §1
# as §2, with “A four-parameter non-linear regression curve fit was applied to dose-response data in Prism to determine the half maximal growth inhibitory concentration (GI50) of each compound.” left out
structure (smiles),measurement,setting,value
C=C(COC(=O)N1CCN(c2nc(NCc3nc4cc(C)ccc4[nH]3)n3ncc(Br)c3n2)CC1)C(=O)N1CCN(c2nc(OC[C@@H]3CCCN3C)nc3c2CCN(c2cccc4cccc(Cl)c24)C3)C[C@@H]1CC#N,EC50,KRAS G12C [1],250 to 5000 nM
same,GI50,HeLa cells (ATCC CCL-2),< 500 nM
same,IC50,KRAS G12C [2],< 100 nM
same,GI50,[3],< 500 nM
C=C(COC(=O)NCCc1cc(Cl)cc(NC(=O)NCc2ccc3c(c2)CN(C2CCC(=O)NC2=O)C3=O)c1)C(=O)N1CCN(c2nc(OC[C@@H]3CCCN3C)nc3c2CCN(c2cccc4cccc(Cl)c24)C3)C[C@@H]1CC#N (some centres unmarked),EC50,KRAS G12C [1],250 to 5000 nM
same,GI50,HeLa cells (ATCC CCL-2),> 10000 nM
same,IC50,KRAS G12C [2],< 100 nM
same,GI50,[3],1500 to 10000 nM
